# Laboratory results reported in the supplement of paper PMC6411743.
# Protein sequences, listed by entry. Tags and fused reporters are not part of them. Lines headed by an entry give the natural chain unless they say otherwise; changes in a name come on top.
# UniProt Q14147: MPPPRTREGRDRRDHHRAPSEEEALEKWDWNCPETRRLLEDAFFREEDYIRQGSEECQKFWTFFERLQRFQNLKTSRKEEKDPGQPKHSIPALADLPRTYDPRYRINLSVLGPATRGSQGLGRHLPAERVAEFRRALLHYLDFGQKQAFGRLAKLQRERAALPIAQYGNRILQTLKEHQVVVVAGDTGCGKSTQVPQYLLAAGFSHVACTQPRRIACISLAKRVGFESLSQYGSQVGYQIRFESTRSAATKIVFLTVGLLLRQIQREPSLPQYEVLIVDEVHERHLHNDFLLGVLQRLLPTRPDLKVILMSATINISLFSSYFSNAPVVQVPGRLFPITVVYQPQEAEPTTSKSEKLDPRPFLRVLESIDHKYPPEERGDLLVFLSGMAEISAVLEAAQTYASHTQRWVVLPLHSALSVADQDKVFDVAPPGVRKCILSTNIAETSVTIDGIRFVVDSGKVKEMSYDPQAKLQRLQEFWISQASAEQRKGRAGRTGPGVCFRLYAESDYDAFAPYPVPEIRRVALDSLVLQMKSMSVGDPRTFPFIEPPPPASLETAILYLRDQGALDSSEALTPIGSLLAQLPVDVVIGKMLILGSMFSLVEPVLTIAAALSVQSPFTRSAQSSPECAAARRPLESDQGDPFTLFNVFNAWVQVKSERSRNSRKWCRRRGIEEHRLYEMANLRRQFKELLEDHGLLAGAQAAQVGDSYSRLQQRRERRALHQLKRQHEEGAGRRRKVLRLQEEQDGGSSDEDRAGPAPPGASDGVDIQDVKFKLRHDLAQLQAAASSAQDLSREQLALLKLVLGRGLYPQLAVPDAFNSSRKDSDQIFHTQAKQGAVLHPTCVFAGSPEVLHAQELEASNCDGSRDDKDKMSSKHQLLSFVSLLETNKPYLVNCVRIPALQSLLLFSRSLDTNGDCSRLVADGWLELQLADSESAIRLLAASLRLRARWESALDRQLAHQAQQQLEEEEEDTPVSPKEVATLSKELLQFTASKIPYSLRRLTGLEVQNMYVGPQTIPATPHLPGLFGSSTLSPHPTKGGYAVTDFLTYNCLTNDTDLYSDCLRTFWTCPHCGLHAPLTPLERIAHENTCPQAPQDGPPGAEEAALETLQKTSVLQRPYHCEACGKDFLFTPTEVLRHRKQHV
# UniProt Q4G176: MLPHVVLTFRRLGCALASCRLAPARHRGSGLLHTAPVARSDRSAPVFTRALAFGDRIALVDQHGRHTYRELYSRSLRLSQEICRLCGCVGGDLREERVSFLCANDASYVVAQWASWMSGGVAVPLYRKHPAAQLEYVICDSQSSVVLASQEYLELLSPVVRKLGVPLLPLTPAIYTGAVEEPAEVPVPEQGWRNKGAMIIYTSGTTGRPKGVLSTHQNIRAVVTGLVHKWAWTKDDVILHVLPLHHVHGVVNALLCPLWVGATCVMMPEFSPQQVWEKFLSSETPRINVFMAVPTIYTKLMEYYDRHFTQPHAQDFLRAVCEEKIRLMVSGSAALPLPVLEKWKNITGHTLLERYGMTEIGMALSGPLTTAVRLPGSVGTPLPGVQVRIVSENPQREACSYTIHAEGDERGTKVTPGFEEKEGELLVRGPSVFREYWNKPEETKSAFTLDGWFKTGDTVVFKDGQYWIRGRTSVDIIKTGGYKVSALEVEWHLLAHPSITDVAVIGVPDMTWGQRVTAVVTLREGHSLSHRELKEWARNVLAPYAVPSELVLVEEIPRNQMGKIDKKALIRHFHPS
# UniProt Q14CB8: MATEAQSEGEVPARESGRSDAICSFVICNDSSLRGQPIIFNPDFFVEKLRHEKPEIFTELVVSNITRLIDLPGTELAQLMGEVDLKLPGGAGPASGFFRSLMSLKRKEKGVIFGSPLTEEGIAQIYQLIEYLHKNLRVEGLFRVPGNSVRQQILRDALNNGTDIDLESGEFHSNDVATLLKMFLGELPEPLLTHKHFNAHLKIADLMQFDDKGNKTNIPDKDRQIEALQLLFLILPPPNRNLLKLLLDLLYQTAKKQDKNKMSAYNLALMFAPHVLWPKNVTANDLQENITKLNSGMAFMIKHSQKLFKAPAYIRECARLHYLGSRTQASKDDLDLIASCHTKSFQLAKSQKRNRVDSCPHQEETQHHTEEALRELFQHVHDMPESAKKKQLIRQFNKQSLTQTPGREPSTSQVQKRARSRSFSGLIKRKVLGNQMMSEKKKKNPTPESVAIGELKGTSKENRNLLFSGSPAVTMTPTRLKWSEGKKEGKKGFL
# UniProt Q14680: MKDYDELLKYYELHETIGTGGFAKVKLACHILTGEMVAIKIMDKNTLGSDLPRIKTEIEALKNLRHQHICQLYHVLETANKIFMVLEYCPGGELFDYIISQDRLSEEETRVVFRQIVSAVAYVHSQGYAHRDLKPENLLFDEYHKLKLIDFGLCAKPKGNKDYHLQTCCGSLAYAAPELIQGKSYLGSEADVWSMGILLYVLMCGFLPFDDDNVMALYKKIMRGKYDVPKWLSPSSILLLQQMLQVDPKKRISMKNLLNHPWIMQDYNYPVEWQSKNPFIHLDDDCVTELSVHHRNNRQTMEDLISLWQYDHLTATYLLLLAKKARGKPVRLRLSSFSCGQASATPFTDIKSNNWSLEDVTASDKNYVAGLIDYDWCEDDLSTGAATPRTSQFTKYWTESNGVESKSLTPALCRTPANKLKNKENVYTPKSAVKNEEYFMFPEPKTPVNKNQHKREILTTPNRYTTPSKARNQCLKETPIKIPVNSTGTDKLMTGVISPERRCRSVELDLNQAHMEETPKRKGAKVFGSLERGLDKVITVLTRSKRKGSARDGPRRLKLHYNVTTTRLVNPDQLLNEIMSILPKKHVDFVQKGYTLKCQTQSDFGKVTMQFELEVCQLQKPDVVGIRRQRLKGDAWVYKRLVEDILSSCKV
# UniProt Q3KRA6: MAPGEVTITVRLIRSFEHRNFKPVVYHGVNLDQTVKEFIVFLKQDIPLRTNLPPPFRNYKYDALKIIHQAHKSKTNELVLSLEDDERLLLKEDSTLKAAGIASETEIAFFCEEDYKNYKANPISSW
# UniProt Q14683: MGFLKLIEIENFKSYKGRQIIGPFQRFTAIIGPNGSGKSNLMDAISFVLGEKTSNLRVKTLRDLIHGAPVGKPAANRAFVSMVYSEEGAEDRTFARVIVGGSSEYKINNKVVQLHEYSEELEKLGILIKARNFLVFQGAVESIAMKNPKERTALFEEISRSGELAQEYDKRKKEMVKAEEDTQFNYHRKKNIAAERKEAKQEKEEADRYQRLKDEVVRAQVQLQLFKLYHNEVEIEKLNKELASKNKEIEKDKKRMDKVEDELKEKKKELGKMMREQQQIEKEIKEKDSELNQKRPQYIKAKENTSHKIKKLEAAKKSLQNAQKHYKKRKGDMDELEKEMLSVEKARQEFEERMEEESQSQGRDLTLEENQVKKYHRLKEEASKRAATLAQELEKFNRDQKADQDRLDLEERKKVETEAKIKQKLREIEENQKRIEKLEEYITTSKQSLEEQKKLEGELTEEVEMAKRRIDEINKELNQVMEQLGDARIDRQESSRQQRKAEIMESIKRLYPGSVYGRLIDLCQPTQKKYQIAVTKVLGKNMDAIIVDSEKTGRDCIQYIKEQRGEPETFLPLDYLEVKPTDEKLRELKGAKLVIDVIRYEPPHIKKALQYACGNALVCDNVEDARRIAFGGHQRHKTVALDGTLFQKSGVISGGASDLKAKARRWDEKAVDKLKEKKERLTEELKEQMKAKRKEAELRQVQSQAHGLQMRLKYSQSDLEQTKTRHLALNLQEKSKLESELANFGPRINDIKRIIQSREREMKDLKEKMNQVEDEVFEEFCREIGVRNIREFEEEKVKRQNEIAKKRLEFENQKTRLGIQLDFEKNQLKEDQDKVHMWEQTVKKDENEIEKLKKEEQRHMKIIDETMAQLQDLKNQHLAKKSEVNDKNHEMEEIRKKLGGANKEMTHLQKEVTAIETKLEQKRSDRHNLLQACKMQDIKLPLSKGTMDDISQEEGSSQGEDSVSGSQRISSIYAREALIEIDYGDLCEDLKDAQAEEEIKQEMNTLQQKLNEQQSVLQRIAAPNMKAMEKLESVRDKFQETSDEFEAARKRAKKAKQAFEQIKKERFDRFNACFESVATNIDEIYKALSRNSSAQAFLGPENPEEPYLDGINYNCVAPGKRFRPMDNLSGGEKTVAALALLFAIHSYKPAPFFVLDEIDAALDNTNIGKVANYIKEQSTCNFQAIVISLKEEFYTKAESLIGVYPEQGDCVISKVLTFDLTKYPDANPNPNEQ
# UniProt Q15650: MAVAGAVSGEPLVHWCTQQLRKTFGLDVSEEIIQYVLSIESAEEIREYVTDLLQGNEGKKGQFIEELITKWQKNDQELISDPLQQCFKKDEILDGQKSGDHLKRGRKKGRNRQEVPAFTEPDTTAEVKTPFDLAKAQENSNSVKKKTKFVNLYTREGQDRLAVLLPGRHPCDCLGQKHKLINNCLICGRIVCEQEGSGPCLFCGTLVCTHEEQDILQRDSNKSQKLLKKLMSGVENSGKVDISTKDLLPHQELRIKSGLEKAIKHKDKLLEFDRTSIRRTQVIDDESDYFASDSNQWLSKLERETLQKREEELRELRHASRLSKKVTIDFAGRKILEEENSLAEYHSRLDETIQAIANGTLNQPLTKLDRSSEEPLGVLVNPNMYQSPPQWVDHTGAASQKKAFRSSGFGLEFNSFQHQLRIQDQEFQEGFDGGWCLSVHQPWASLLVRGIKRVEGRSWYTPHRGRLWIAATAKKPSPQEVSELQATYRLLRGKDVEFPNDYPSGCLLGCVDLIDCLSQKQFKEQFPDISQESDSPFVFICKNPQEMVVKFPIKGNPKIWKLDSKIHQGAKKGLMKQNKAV
# UniProt Q14934: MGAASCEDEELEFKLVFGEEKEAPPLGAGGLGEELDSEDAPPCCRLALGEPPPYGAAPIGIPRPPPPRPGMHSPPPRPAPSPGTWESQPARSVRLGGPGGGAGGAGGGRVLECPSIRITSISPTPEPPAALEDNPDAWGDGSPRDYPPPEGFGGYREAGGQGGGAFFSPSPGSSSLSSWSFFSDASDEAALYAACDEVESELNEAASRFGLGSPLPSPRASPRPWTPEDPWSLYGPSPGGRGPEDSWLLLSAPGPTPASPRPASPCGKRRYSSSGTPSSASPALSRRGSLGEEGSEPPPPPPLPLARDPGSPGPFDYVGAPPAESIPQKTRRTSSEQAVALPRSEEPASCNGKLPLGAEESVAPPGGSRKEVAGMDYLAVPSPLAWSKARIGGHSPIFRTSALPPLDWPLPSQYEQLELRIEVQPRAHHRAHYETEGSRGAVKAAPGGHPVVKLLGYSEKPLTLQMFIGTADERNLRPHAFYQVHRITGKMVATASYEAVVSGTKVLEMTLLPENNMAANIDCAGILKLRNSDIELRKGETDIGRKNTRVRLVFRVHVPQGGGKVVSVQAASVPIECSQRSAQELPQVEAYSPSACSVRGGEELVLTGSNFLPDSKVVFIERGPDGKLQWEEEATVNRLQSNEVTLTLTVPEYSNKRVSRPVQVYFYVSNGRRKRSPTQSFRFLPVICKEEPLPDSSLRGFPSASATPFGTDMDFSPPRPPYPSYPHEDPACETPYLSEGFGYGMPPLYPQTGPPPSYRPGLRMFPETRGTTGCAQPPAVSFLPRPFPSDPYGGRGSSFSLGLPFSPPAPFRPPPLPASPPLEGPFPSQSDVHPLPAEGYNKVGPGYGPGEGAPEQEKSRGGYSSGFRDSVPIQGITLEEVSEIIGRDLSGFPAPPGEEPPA
# UniProt Q15084: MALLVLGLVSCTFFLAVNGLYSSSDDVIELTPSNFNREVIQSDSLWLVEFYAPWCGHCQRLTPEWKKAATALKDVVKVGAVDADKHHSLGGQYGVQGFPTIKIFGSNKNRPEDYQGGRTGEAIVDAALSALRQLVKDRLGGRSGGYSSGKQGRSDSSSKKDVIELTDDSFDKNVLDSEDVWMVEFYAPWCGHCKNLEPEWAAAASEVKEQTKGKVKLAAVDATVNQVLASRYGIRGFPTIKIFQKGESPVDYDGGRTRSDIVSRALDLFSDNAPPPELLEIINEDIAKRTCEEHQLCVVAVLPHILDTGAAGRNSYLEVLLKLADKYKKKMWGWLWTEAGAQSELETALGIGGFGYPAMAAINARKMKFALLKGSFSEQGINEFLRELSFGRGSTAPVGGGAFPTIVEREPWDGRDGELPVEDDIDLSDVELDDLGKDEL
# UniProt Q16186: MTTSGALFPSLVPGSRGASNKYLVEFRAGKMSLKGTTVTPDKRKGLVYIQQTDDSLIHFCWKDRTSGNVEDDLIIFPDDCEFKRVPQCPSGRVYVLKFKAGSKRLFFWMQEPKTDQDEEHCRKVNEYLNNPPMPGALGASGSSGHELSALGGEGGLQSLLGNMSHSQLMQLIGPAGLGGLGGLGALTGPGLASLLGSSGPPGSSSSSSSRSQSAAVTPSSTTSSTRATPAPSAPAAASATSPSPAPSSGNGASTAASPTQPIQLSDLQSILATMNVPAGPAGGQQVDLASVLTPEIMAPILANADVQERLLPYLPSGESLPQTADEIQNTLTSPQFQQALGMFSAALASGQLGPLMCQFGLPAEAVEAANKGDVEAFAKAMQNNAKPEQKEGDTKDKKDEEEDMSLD
# ± gives the standard deviation of the averaged measurements. This is a selection; strong and weak results do not stand in their true shares. Most values lie at the level of the controls, where differences are scatter.
# Compound: Nc1ncnc2c1ncn2[C@@H]1O[C@H](COP(=O)(O)OP(=O)(O)OP(=O)(O)O)[C@@H](O)[C@H]1O [adenosine triphosphate]
# Assay: NP40-soluble protein abundance relative to vehicle (solubility fold change) (ratio); higher = more soluble protein in presence of ATP
# Outline: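 Jurkat crude lysate prepared with a Dounce homogeniser was treated at eight concentrations spanning 0.1 to 10 mM, 10 min at room temperature then 3 min at 37 °C. Solubilisation with 0.8% NP40 and benzonase and ultracentrifugation preceded TMT labelling of the supernatant for LC-MS/MS. Fold change against the detergent-processed vehicle was determined per replicate from vsn-normalised intensities, across three independent experiments.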
target,measurement,setting,value
KIF22 (UniProt Q14807),NP40-soluble protein abundance,concentration: 0.1mM,1.11 ± 0.084
same,NP40-soluble protein abundance,concentration: 0.5mM,1.19 ± 0.053
DHX34 (UniProt Q14147),NP40-soluble protein abundance,concentration: 0.1mM,1.23 ± 0.21
same,NP40-soluble protein abundance,concentration: 0.5mM,1.24 ± 0.25
Q15392 and related entries (UniProt Q3LIE7+Q15392),NP40-soluble protein abundance,concentration: 0.1mM,1.01 ± 0.03
same,NP40-soluble protein abundance,concentration: 0.5mM,0.97 ± 0.011
GALE (UniProt Q14376),NP40-soluble protein abundance,concentration: 0.1mM,1.04 ± 0.05
same,NP40-soluble protein abundance,concentration: 0.5mM,0.988 ± 0.019
ACSF3 (UniProt Q4G176),NP40-soluble protein abundance,concentration: 0.1mM,1.05 ± 0.079
same,NP40-soluble protein abundance,concentration: 0.5mM,1.06 ± 0.069
UniProt Q14814-4,NP40-soluble protein abundance,concentration: 0.1mM,0.972 ± 0.028
same,NP40-soluble protein abundance,concentration: 0.5mM,0.94 ± 0.029
SNAPC1 (UniProt Q16533),NP40-soluble protein abundance,concentration: 0.1mM,1.05 ± 0.13
same,NP40-soluble protein abundance,concentration: 0.5mM,1.04 ± 0.024
UniProt Q16864 and related entries,NP40-soluble protein abundance,concentration: 0.1mM,0.985 ± 0.052
same,NP40-soluble protein abundance,concentration: 0.5mM,0.998 ± 0.041
UniProt Q14197,NP40-soluble protein abundance,concentration: 0.1mM,0.923 ± 0.08
same,NP40-soluble protein abundance,concentration: 0.5mM,0.961 ± 0.082
UniProt Q15042 and related entries,NP40-soluble protein abundance,concentration: 0.1mM,1.04 ± 0.017
same,NP40-soluble protein abundance,concentration: 0.5mM,1.03 ± 0.052
UniProt Q14CB8 and related entries,NP40-soluble protein abundance,concentration: 0.1mM,1.08 ± 0.077
same,NP40-soluble protein abundance,concentration: 0.5mM,1.26 ± 0.11
ACAP2 (UniProt Q15057),NP40-soluble protein abundance,concentration: 0.1mM,1.05 ± 0.064
same,NP40-soluble protein abundance,concentration: 0.5mM,1.01 ± 0.042
PDS5A (UniProt Q29RF7),NP40-soluble protein abundance,concentration: 0.1mM,0.978 ± 0.043
same,NP40-soluble protein abundance,concentration: 0.5mM,0.988 ± 0.033
UniProt Q14680 and related entries,NP40-soluble protein abundance,concentration: 0.1mM,1.02 ± 0.056
same,NP40-soluble protein abundance,concentration: 0.5mM,1.1 ± 0.042
MVP (UniProt Q14764),NP40-soluble protein abundance,concentration: 0.1mM,0.99 ± 0.091
same,NP40-soluble protein abundance,concentration: 0.5mM,1.04 ± 0.082
SKIV2L (UniProt Q15477),NP40-soluble protein abundance,concentration: 0.1mM,0.938 ± 0.029
same,NP40-soluble protein abundance,concentration: 0.5mM,0.9318 ± 0.0087
C2orf76 (UniProt Q3KRA6),NP40-soluble protein abundance,concentration: 0.1mM,0.92 ± 0.11
same,NP40-soluble protein abundance,concentration: 0.5mM,0.977 ± 0.069
SMC1A (UniProt Q14683),NP40-soluble protein abundance,concentration: 0.1mM,1.01 ± 0.023
same,NP40-soluble protein abundance,concentration: 0.5mM,1.03 ± 0.055
PSME4 (UniProt Q14997),NP40-soluble protein abundance,concentration: 0.1mM,1.05 ± 0.072
same,NP40-soluble protein abundance,concentration: 0.5mM,1.02 ± 0.061
ZNF800 (UniProt Q2TB10),NP40-soluble protein abundance,concentration: 0.1mM,1.03 ± 0.12
same,NP40-soluble protein abundance,concentration: 0.5mM,1.05 ± 0.1
Q1RLN5 and related entries (UniProt Q8IWW6),NP40-soluble protein abundance,concentration: 0.1mM,1.08 ± 0.066
same,NP40-soluble protein abundance,concentration: 0.5mM,1.16 ± 0.045
UniProt Q15650 and related entries,NP40-soluble protein abundance,concentration: 0.1mM,0.992 ± 0.11
same,NP40-soluble protein abundance,concentration: 0.5mM,0.905 ± 0.093
WDR43 (UniProt Q15061),NP40-soluble protein abundance,concentration: 0.1mM,1.15 ± 0.29
same,NP40-soluble protein abundance,concentration: 0.5mM,1.016 ± 0.01
UniProt Q15599 and related entries,NP40-soluble protein abundance,concentration: 0.1mM,0.965 ± 0.066
same,NP40-soluble protein abundance,concentration: 0.5mM,0.94 ± 0.053
UniProt Q16352,NP40-soluble protein abundance,concentration: 0.1mM,1.08 ± 0.059
same,NP40-soluble protein abundance,concentration: 0.5mM,1.1 ± 0.094
UniProt Q14934 and related entries,NP40-soluble protein abundance,concentration: 0.1mM,0.955 ± 0.15
same,NP40-soluble protein abundance,concentration: 0.5mM,0.963 ± 0.12
TMED2 (UniProt Q15363),NP40-soluble protein abundance,concentration: 0.1mM,1.1 ± 0.16
same,NP40-soluble protein abundance,concentration: 0.5mM,1.11 ± 0.14
UniProt Q15583 and related entries,NP40-soluble protein abundance,concentration: 0.1mM,0.891 ± 0.07
same,NP40-soluble protein abundance,concentration: 0.5mM,0.909 ± 0.066
UniProt Q2KHR3 and related entries,NP40-soluble protein abundance,concentration: 0.1mM,1.09 ± 0.031
same,NP40-soluble protein abundance,concentration: 0.5mM,1.04 ± 0.081
UniProt Q15006,NP40-soluble protein abundance,concentration: 0.1mM,1 ± 0.017
same,NP40-soluble protein abundance,concentration: 0.5mM,1.004 ± 0.0065
HERC1 (UniProt Q15751),NP40-soluble protein abundance,concentration: 0.1mM,1.05 ± 0.028
same,NP40-soluble protein abundance,concentration: 0.5mM,1.02 ± 0.054
GNPTAB (UniProt Q3T906),NP40-soluble protein abundance,concentration: 0.1mM,0.938 ± 0.11
same,NP40-soluble protein abundance,concentration: 0.5mM,0.926 ± 0.092
C5orf22 (UniProt Q49AR2),NP40-soluble protein abundance,concentration: 0.1mM,0.989 ± 0.046
same,NP40-soluble protein abundance,concentration: 0.5mM,1.01 ± 0.027
FZD2 (UniProt Q14332),NP40-soluble protein abundance,concentration: 0.1mM,0.971 ± 0.035
same,NP40-soluble protein abundance,concentration: 0.5mM,1.05 ± 0.015
UniProt Q15084 and related entries,NP40-soluble protein abundance,concentration: 0.1mM,0.97 ± 0.014
same,NP40-soluble protein abundance,concentration: 0.5mM,0.952 ± 0.053
ADRM1 (UniProt Q16186),NP40-soluble protein abundance,concentration: 0.1mM,0.875 ± 0.041
same,NP40-soluble protein abundance,concentration: 0.5mM,0.841 ± 0.089
SF3A1 (UniProt Q15459),NP40-soluble protein abundance,concentration: 0.1mM,1 ± 0.03
same,NP40-soluble protein abundance,concentration: 0.5mM,1.09 ± 0.057
UniProt Q15046 and related entries,NP40-soluble protein abundance,concentration: 0.1mM,1.01 ± 0.044
same,NP40-soluble protein abundance,concentration: 0.5mM,1 ± 0.037
CAMK4 (UniProt Q16566),NP40-soluble protein abundance,concentration: 0.1mM,0.99 ± 0.029
same,NP40-soluble protein abundance,concentration: 0.5mM,1.02 ± 0.039
QRICH1 (UniProt Q2TAL8),NP40-soluble protein abundance,concentration: 0.1mM,1.015 ± 0.0094
same,NP40-soluble protein abundance,concentration: 0.5mM,1.03 ± 0.024
UniProt Q16206 and related entries,NP40-soluble protein abundance,concentration: 0.1mM,0.933 ± 0.21
same,NP40-soluble protein abundance,concentration: 0.5mM,1.1 ± 0.14
PTPRCAP (UniProt Q14761),NP40-soluble protein abundance,concentration: 0.1mM,0.832 ± 0.092
same,NP40-soluble protein abundance,concentration: 0.5mM,0.847 ± 0.097
UniProt Q15723 and related entries,NP40-soluble protein abundance,concentration: 0.1mM,0.942 ± 0.088
same,NP40-soluble protein abundance,concentration: 0.5mM,0.943 ± 0.08
UniProt Q14697 and related entries,NP40-soluble protein abundance,concentration: 0.1mM,1.04 ± 0.068
same,NP40-soluble protein abundance,concentration: 0.5mM,1.01 ± 0.049
UniProt Q4G0N4,NP40-soluble protein abundance,concentration: 0.1mM,1.03 ± 0.075
same,NP40-soluble protein abundance,concentration: 0.5mM,1.04 ± 0.053
UBE2V2 (UniProt Q15819),NP40-soluble protein abundance,concentration: 0.1mM,0.923 ± 0.029
same,NP40-soluble protein abundance,concentration: 0.5mM,0.925 ± 0.04
same,NP40-soluble protein abundance,concentration: 1mM,0.932 ± 0.018
same,NP40-soluble protein abundance,concentration: 2mM,0.904 ± 0.027
same,NP40-soluble protein abundance,concentration: 4mM,0.9 ± 0.045
same,NP40-soluble protein abundance,concentration: 6mM,0.922 ± 0.032
same,NP40-soluble protein abundance,concentration: 8mM,0.885 ± 0.035
same,NP40-soluble protein abundance,concentration: 10mM,0.853 ± 0.028

# Exported tab-delimited: part of the list above
target	measurement	setting	value
PSME4 (UniProt Q14997)	NP40-soluble protein abundance	concentration: 0.1mM	1.05 ± 0.072
same	NP40-soluble protein abundance	concentration: 0.5mM	1.02 ± 0.061
ZNF800 (UniProt Q2TB10)	NP40-soluble protein abundance	concentration: 0.1mM	1.03 ± 0.12
same	NP40-soluble protein abundance	concentration: 0.5mM	1.05 ± 0.1

# Fetched one by one from above, 2 records:
target,measurement,setting,value
DHX34 (UniProt Q14147),NP40-soluble protein abundance,concentration: 0.1mM,1.23 ± 0.21
UniProt Q15046 and related entries,NP40-soluble protein abundance,concentration: 0.5mM,1 ± 0.037

# Given tab-delimited: entries from further up.
target	measurement	setting	value
UniProt Q15650 and related entries	NP40-soluble protein abundance	concentration: 0.1mM	0.992 ± 0.11
same	NP40-soluble protein abundance	concentration: 0.5mM	0.905 ± 0.093
